Assay: general procedure: solution-phase peptide synthesis; DIC/HOBt; EDC.HCl/HOBt; TBTU/HOBt; DIC/Oxyma; ClCO2iBu/NMM; optionally with CuCl
Conditions: coupling step

Morph-Gly-Homophe-Leu-Phe-OBn showed a step yield of 99%.
